No constants are given. Whether binding was seen depends on the method and setting. Binding seen in cells or lysates may run through a third protein. Some entries that bind do so weakly or less than the wild type.
What was measured:
[1] = target: p21-activated kinase 4 (Pak4) (mouse (endogenous in TSPCs and tendon tissue of C57BL/6 mice)) (UniProt Q8BTW9); experiment: co-IP; lysates of osteogenic induced TSPCs with PBS or NecroMφ-EVs; magnetic beads with anti-Pak4 and Fabp3 antibodies or normal rabbit IgG, overnight at 4 °C; blot
[2] = target: p21-activated kinase 4 (Pak4) (mouse (endogenous in TSPCs and tendon tissue of C57BL/6 mice)) (UniProt Q8BTW9); experiment: co-IP; in vivo study, burn/tenotomy mice and sham group (Fig. S8D)

Sequences of proteins named here, by UniProt entry; tags and fusion partners are left off.
UniProt Q8BTW9: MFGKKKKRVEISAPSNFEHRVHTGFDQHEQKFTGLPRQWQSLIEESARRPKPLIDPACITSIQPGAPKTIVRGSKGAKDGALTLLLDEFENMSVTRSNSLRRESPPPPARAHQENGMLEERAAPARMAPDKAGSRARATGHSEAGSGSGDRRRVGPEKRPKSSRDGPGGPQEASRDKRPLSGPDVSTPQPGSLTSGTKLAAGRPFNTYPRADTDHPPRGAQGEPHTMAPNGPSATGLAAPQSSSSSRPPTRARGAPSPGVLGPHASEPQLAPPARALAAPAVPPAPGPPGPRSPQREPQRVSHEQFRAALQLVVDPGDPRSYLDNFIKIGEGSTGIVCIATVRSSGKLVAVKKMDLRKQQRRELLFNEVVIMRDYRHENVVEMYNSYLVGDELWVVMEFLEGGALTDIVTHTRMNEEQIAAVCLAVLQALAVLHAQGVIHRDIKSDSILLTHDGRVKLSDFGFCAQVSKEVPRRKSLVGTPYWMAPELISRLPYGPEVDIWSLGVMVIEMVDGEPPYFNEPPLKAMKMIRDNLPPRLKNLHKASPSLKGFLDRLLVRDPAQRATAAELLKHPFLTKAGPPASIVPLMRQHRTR
UniProt P11404: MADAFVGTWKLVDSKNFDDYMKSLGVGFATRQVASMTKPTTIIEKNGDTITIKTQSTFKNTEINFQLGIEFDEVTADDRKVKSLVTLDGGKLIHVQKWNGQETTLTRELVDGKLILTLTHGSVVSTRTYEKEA

- binding [2]: binds
Substance: fatty acid binding protein 3 (Fabp3) (from UniProt P11404 1-133)
- binding [1]: binds
